Laboratory results as given in patent US12220465B2, “Compositions and methods for targeted treatment and imaging of cancer or tumors” (Washington University, priority 2018, dated 2025).

System: EPCs
Test: ICP-MS detection of Titanium and boron in loaded EPCs
Assay type: cell-based

| Compound | loading of EPCs confirmed by presence of Titanium or boron (ICP-MS) | cellular content of Titanium in EPCs (after treatment with nontoxic concentration range of Tc, maximum reached) [ng Titanium/mg EPC's] |
| --- | --- | --- |
| [Cl-].[Cl-].[Ti+4].c1cc[cH-]c1.c1cc[cH-]c1 [Titanocene] | actually loaded with Titanocene | 5 |
| N[C@@H](Cc1ccc(B(O)O)cc1)C(=O)O [BPA, 4-Borono-L-phenylalanine] | actually loaded with boron |  |
